Assay results taken from US20190224147A1, “CETP MODULATOR FOR USE IN THE TREATEMENT OF EYE DISEASE” (Hoffmann-La Roche Inc., priority 2013, published 2019).
At least one structure is not confirmed: it was looked up by name or label, or the drawing left a doubt. Some of these results come from one statement about several compounds together.

How the values were obtained:
[1] = cited from earlier work; for raise plasma HDL-C: in humans, Krishna R, Clin Pharmacol Ther. 2008
[2] = Golden Syrian hamsters study b: additional variables measured (cholesterol fractions, triglycerides); assay type: in vivo; settings: 14 days, dalcetrapib ~300 mg/kg or anacetrapib ~25 mg/kg in diet
Description: Hamsters (7 weeks-old) were fed a standard rodent chow diet containing 4.5% fat and 0.05% cholesterol and coconut oil (70 g/kg dry food) for 14 days. After 2 weeks of high-fat diet feeding, hamsters were allocated to 3 experimental treatment groups of 10 animals each based on plasma lipid levels, and provided the same diet as before supplemented with 0.1% (w/w) FLORAGLO (same composition as for Study 2) and either no treatment (group 1), dalcetrapib at 0.320% (w:w, ˜300 mg/kg, group 2), or anacetrapib at 0.024% (w:w, ˜25 mg/kg, group 3).

SMILES	raise plasma HDL-C [1]	HDL-C, in % vs control [2]	LDL-C, in % vs control [2]	Total cholesterol, in % vs control [2]	raises HDL-C ([1]; in humans at the dose of 600 mg, Stein E A, Am J Cardiol. 2009)
COc1cc(F)c(C(C)C)cc1-c1ccc(C(F)(F)F)cc1CN1C(=O)O[C@H](c2cc(C(F)(F)F)cc(C(F)(F)F)c2)[C@@H]1C [anacetrapib]	up to 130%				
CCC(CC)CC1(C(=O)Nc2ccccc2SC(=O)C(C)C)CCCCC1 [dalcetrapib, S-[2-([[1-(2-ethylbutyl)-cyclohexyl]-carbonyl]amino)phenyl]2-methylpropanethioate]		ns	ns	ns	up to 36%
CCOC(=O)N1c2ccc(C(F)(F)F)cc2[C@@H](N(Cc2cc(C(F)(F)F)cc(C(F)(F)F)c2)C(=O)OC)C[C@H]1CC [torcetrapib]	up to 130%				
